Measurements reported in PubChem BioAssay AID652243 (Drosophila RNAi Screening Center, 2013).
In all, the deposit lists about 24,000 reagents; this is an unselected part of those with a known target gene and a result. Of all reagents, 246 (1%) got an active call. 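Plates not normalised; calls are printed but the firefly/Renilla ratio behind them is not deposited; fold cut for lowering reported inconsistently.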 Raw values vary from plate to plate and are shown uncorrected. Unmarked entries are inactive. A plus sign joins genes that one reagent is predicted to hit. The record does not give: the amount of reagent.

Purpose: 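Fly regulators of androgen-dependent reporter output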 (primary screen)
System: Drosophila S2R+ cells
Reagent: long dsRNA against Drosophila genes
Duration: 72 h (48 h, then 24 h hormone)
Treatment: synthetic androgen R1881 at 10 nM for 24 h
Detection: 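Per-well raw luminescence of the androgen-driven firefly reporter and of the Renilla control, two replicates each, without normalisation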
Scale: firefly reporter light: higher = more light from androgen-responsive reporter; Renilla control light: higher = more constitutive control signal (cell number, transfection)
Rule for the call: 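Across duplicate plates, a knock-down whose log firefly/Renilla ratio shifted a set fold down or up from the GFP/LacZ control mean was a hit; the downward cut appears as both 1.5 and 3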
Calls: active = hit: reporter lowered or raised; inactive = no hit

| gene | dsRNA | firefly reporter light, replicate 1 | firefly reporter light, replicate 2 | Renilla control light, replicate 1 | Renilla control light, replicate 2 |
| --- | --- | --- | --- | --- | --- |
| CG15036 (GeneID 50396) | DRSC17968 | 49442 | 71395 | 1.30e6 | 9.51e5 |
| CG15036 (GeneID 50396) | DRSC26078 | 2.86e5 | 3.71e5 | 6.50e5 | 7.41e5 |
| anchor (GeneID 39965) | DRSC10861 | 57825 | 59356 | 4.45e5 | 4.62e5 |
| CG13850 (GeneID 42630) | DRSC14700 | 61066 | 38215 | 4.98e5 | 4.90e5 |
| Kul (GeneID 43501) | DRSC15404 | 94511 | 1.23e5 | 1.60e6 | 2.06e6 |
| Kul (GeneID 43501) | DRSC25888 | 2.76e5 | 3.87e5 | 9.76e5 | 9.07e5 |
| Eip93F (GeneID 44936) | DRSC23072 | 6.90e5 | 9.35e5 | 1.35e6 | 2.02e6 |
| Eip93F (GeneID 44936) | DRSC27506 | 2.33e5 | 2.01e5 | 6.59e5 | 7.96e5 |
| Alg-2 (GeneID 3355106) | DRSC07799 | 27550 | 39264 | 8.87e5 | 1.01e6 |
| Or35a (GeneID 34918) | DRSC03389 | 1.81e5 | 1.84e5 | 1.59e6 | 1.39e6 |
| eIF4E6 (GeneID 43422) | DRSC14853 | 2.14e5 | 1.69e5 | 2.36e6 | 2.60e6 |
| eIF4E6 (GeneID 43422) | DRSC25760 | 7.76e5 | 9.24e5 | 1.56e6 | 1.34e6 |
| eIF4E6 (GeneID 43422) | DRSC39077 | 7.70e5 | 6.72e5 | 2.20e6 | 2.29e6 |
| ush (GeneID 33225) | DRSC00843 | 7.68e5 | 8.65e5 | 2.65e6 | 1.73e6 |
| ush (GeneID 33225) | DRSC26524 | 2.05e5 | 1.70e5 | 4.24e5 | 5.18e5 |
| CG5435 (GeneID 34657) | DRSC02860 | 2.96e5 | 2.70e5 | 2.04e6 | 1.95e6 |
| CG5390 (GeneID 34383) | DRSC02855 | 1.30e5 | 1.92e5 | 7.25e5 | 8.67e5 |
| CG5390 (GeneID 34383) | DRSC27775 | 3.77e5 | 2.71e5 | 3.90e5 | 5.66e5 |
| CG34266 (GeneID 5740465) | DRSC08323 | 2.30e5 | 2.14e5 | 1.19e6 | 1.93e6 |
| PGRP-LD + Pmi | DRSC10512 | 9.29e5 | 7.15e5 | 2.31e6 | 2.44e6 |
| PGRP-LD + Pmi | DRSC10513 | 8.63e5 | 9.87e5 | 1.49e6 | 2.02e6 |
| Spn42Dc (GeneID 35600) | DRSC05010 | 1.19e5 | 1.25e5 | 1.17e6 | 5.58e5 |
| CG17985 (GeneID 35702) | DRSC06702 | 5.51e5 | 3.59e5 | 2.29e6 | 1.54e6 |
| CG42369 (GeneID 33894) | DRSC03244 | 1.52e5 | 1.47e5 | 1.29e6 | 1.26e6 |
| CG1792 (GeneID 43727) | DRSC15290 | 1.21e5 | 1.74e5 | 1.48e6 | 2.39e6 |
| CG1792 (GeneID 43727) | DRSC28745 | 5.15e5 | 4.52e5 | 9.78e5 | 1.09e6 |
| CG5902 (GeneID 42839) | DRSC15912 | 94706 | 78054 | 5.76e5 | 5.48e5 |
| daw (GeneID 33474) | DRSC00479 | 8.57e5 | 9.54e5 | 2.66e6 | 1.60e6 |
| daw (GeneID 33474) | DRSC24450 | 9.80e5 | 1.21e6 | 1.03e6 | 1.07e6 |
| daw (GeneID 33474) | DRSC39007 | 1.79e6 | 1.34e6 | 1.67e6 | 1.65e6 |
| CG15525 (GeneID 43556) | DRSC15062 | 1.38e5 | 1.26e5 | 2.04e6 | 2.21e6 |
| CG15525 (GeneID 43556) | DRSC27631 | 2.80e5 | 3.53e5 | 7.93e5 | 1.13e6 |
| CG42266 (GeneID 7354431) | DRSC21577 | 8.19e5 | 8.79e5 | 2.31e6 | 2.45e6 |
| CG42266 (GeneID 7354431) | DRSC21957 | 8.74e5 | 1.06e6 | 1.54e6 | 1.90e6 |
| CG42266 (GeneID 7354431) | DRSC29782 | 6.63e5 | 3.65e5 | 1.71e6 | 1.36e6 |
| CG42266 (GeneID 7354431) | DRSC39089 | 2.77e5 | 2.47e5 | 1.22e6 | 1.27e6 |
| CG15539 (GeneID 43627) | DRSC15075 | 2.57e5 | 2.14e5 | 3.03e6 | 3.31e6 |
| Sf3a2 (GeneID 39456) | DRSC09801 | 1.36e6 | 8.83e5 | 1.55e6 | 1.70e6 |
| Acox57D-d (GeneID 37446) | DRSC04561 | 7.26e5 | 5.46e5 | 2.26e6 | 1.90e6 |
| Acox57D-d (GeneID 37446) | DRSC30108 | 8.62e5 | 7.28e5 | 1.17e6 | 1.13e6 |
| CG7335 (GeneID 40203) | DRSC10816 | 2.36e5 | 2.57e5 | 1.86e6 | 2.30e6 |
| CG7335 (GeneID 40203) | DRSC26314 | 2.96e5 | 2.70e5 | 5.52e5 | 5.43e5 |
| ppk16 (GeneID 3885612) | DRSC02736 | 4.61e5 | 5.18e5 | 1.38e6 | 1.21e6 |
| Ykt6 (GeneID 31706) | DRSC17970 | 67767 | 34036 | 4.03e5 | 3.29e5 |
| Ykt6 (GeneID 31706) | DRSC26017 | 2.95e5 | 2.88e5 | 1.11e6 | 7.66e5 |
| CG9522 (GeneID 32413) | DRSC20197 | 4.02e5 | 4.26e5 | 2.78e6 | 3.29e6 |
| Muc91C (GeneID 42246) | DRSC16297 | 3.12e5 | 2.41e5 | 3.52e6 | 3.17e6 |
| Muc91C (GeneID 42246) | DRSC21696 | 6.20e5 | 5.65e5 | 2.11e6 | 2.30e6 |
| Muc91C (GeneID 42246) | DRSC25918 | 7.08e5 | 5.96e5 | 8.33e5 | 9.51e5 |
| Apl (GeneID 59216) | DRSC10350 | 2.58e5 | 3.00e5 | 3.00e6 | 2.61e6 |
| CR32733 + CG32797 | DRSC17705 | 1.96e5 | 2.15e5 | 1.90e6 | 2.13e6 |
| CG18301 (GeneID 34451) | DRSC02662 | 2.65e5 | 1.88e5 | 1.45e6 | 1.56e6 |
| Rh7 (GeneID 39389) | DRSC10529 | 8.93e5 | 7.29e5 | 1.34e6 | 1.18e6 |
| Rh7 (GeneID 39389) | DRSC28331 | 3.39e5 | 9.52e5 | 6.21e5 | 1.00e6 |
| TSG101 (GeneID 39881) | DRSC11098 | 2.54e5 | 2.01e5 | 2.49e6 | 1.98e6 |
| HDAC6 (GeneID 32461) | DRSC20252 | 92033 | 1.27e5 | 7.12e5 | 8.13e5 |
| HDAC6 (GeneID 32461) | DRSC29348 | 3.23e5 | 3.37e5 | 8.65e5 | 8.65e5 |
| rho-5 (GeneID 2768944) | DRSC02847 | 6.15e5 | 8.16e5 | 1.53e6 | 1.87e6 |
| rho-5 (GeneID 2768944) | DRSC26239 | 3.74e5 | 3.17e5 | 5.76e5 | 5.57e5 |

Reformatted: 5 of the entries above
daw (GeneID 33474) [DRSC24450]
- firefly reporter light, replicate 1: 9.80e5
- firefly reporter light, replicate 2: 1.21e6
- Renilla control light, replicate 1: 1.03e6
- Renilla control light, replicate 2: 1.07e6

daw (GeneID 33474) [DRSC39007]
- firefly reporter light, replicate 1: 1.79e6
- firefly reporter light, replicate 2: 1.34e6
- Renilla control light, replicate 1: 1.67e6
- Renilla control light, replicate 2: 1.65e6

CG15525 (GeneID 43556) [DRSC15062]
- firefly reporter light, replicate 1: 1.38e5
- firefly reporter light, replicate 2: 1.26e5
- Renilla control light, replicate 1: 2.04e6
- Renilla control light, replicate 2: 2.21e6

CG15525 (GeneID 43556) [DRSC27631]
- firefly reporter light, replicate 1: 2.80e5
- firefly reporter light, replicate 2: 3.53e5
- Renilla control light, replicate 1: 7.93e5
- Renilla control light, replicate 2: 1.13e6

CG42266 (GeneID 7354431) [DRSC21577]
- firefly reporter light, replicate 1: 8.19e5
- firefly reporter light, replicate 2: 8.79e5
- Renilla control light, replicate 1: 2.31e6
- Renilla control light, replicate 2: 2.45e6
